The subject of series [1] is GST-ScFBH2 (Saccharum spp. (sugarcane)). The experiment in a line: EMSA. The conditions noted are these: poly(dI-dC) 500 ng, BSA 0.2 ug/ul, probe 50 nM; 20 mM HEPES-KOH pH 7.2, 80 mM KCl, 0.1 mM EDTA, 5% glycerol, 2.5 mM DTT, 0.2 ug/ul BSA, 500 ng poly(dI-dC); 30 min, room temperature; 7% native PAGE in 0.25x TBE; recombinant protein; protein details: N-terminal GST (pGEX4T-1); label: 5'-Cy5 on printed strand. In general terms: In EMSA bound probe runs differently from free probe, usually more slowly.

The test system is the same in series [2]. The experiment in a line: competition with a labelled probe. The following applies: EMSA, unlabeled competitor at 5x, 10x, 20x excess over Cy5 WT probe; 20 mM HEPES-KOH pH 7.2, 80 mM KCl, 0.1 mM EDTA, 5% glycerol, 2.5 mM DTT, 0.2 ug/ul BSA, 500 ng poly(dI-dC); 30 min, room temperature; 7% native PAGE in 0.25x TBE; recombinant protein; protein details: N-terminal GST (pGEX4T-1).

For at least one entry, the source does not settle the construct or the ends of the probe. For some assays here: A negative result means that nothing was seen under these conditions.

The text below walks through data of publication PMC5920332.

Turning to “CCTGCTTGCACACTTGCACCACTTGTGCGTGAGCC (double strand) [pScACS2 probe (WT, two E-boxes)]”, the binding result in series [1] is recorded as “binds”.

Take “CCTGCTTGCAACCTCACACACCTCATGCGTGAGCC (double strand) [mEE competitor (both E-boxes mutated)]”: the binding result in series [2] is recorded as “no binding”.
